{"source": "PubChem BioAssay AID652259 (Drosophila RNAi Screening Center, 2013)", "test": "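Knock-downs that push a Wingless-driven reporter up or down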 (primary screen)", "system": "Drosophila clone 8 imaginal disc epithelial cells", "reagent": "long dsRNA against Drosophila genes", "challenge": "pathway stimulated by co-transfected Wingless expression plasmid", "measurement": "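Dual luciferase reads per well after Wingless plasmid stimulation: reporter firefly light and Renilla control light; activity is firefly divided by Renilla, a ratio not deposited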", "direction": "firefly reporter light: higher = more Wg reporter light, before normalisation; Renilla control light: higher = more transfected or surviving cells", "hit rule": "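a knock-down is a candidate when at least two out of four statistical tests show it departing from its plate mean; one test alone signals a weak candidate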", "meaning of the calls": "active = candidate regulator (raises or lowers reporter); inactive = not a candidate", "note": "The deposit covers about 22,000 reagents; below is a random part of those that have a named target and a result. Over the whole deposit, 233 (1.1%) got an active call. 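Light values are raw, unnormalised plate reads; the ratio scores behind the reporter calls were not deposited.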 The record does not give: the amount of reagent, the time to read-out, the dose of the treatment."}
{"gene knocked down": "OtopLc (Otopetrin-like c)", "amplicon": "DRSC18082", "firefly reporter light, replicate 1": 18258, "Renilla control light, replicate 1": 8450, "Call": "inactive"}
{"gene knocked down": "OtopLc (Otopetrin-like c)", "amplicon": "DRSC18083", "firefly reporter light, replicate 1": 10832, "Renilla control light, replicate 1": 7307, "Call": "inactive"}
{"gene knocked down": "OtopLc (Otopetrin-like c)", "amplicon": "DRSC18132", "firefly reporter light, replicate 1": 16432, "Renilla control light, replicate 1": 8403, "Call": "inactive"}
{"gene knocked down": "CG15728", "amplicon": "DRSC19694", "firefly reporter light, replicate 1": 29825, "Renilla control light, replicate 1": 15461, "Call": "inactive"}
{"gene knocked down": "CG15728", "amplicon": "DRSC22868", "firefly reporter light, replicate 1": 5.00e5, "firefly reporter light, replicate 2": 7.26e5, "Renilla control light, replicate 1": 2.13e5, "Renilla control light, replicate 2": 3.21e5, "Call": "inactive"}
{"gene knocked down": "CG14722", "amplicon": "DRSC14944", "firefly reporter light, replicate 1": 4950, "Renilla control light, replicate 1": 2262, "Call": "inactive"}
{"gene knocked down": "Nepl3 (Neprilysin-like 3)", "amplicon": "DRSC02681", "firefly reporter light, replicate 1": 9424, "Renilla control light, replicate 1": 3450, "Call": "inactive"}
{"gene knocked down": "CG3420", "amplicon": "DRSC04995", "firefly reporter light, replicate 1": 3655, "firefly reporter light, replicate 2": 7453, "Renilla control light, replicate 1": 679, "Renilla control light, replicate 2": 3298, "Call": "inactive"}
{"gene knocked down": "CG32727", "amplicon": "DRSC17519", "firefly reporter light, replicate 1": 3029, "Renilla control light, replicate 1": 912, "Call": "inactive"}
{"gene knocked down": "MFS9 (Major Facilitator Superfamily Transporter 9)", "amplicon": "DRSC15560", "firefly reporter light, replicate 1": 2752, "firefly reporter light, replicate 2": 8854, "Renilla control light, replicate 1": 1104, "Renilla control light, replicate 2": 2427, "Call": "inactive"}
{"gene knocked down": "SK (small conductance calcium-activated potassium channel)", "amplicon": "DRSC17387", "firefly reporter light, replicate 1": 3058, "Renilla control light, replicate 1": 656, "Call": "inactive"}
{"gene knocked down": "SK (small conductance calcium-activated potassium channel)", "amplicon": "DRSC17751", "firefly reporter light, replicate 1": 24800, "Renilla control light, replicate 1": 11334, "Call": "inactive"}
{"gene knocked down": "SK (small conductance calcium-activated potassium channel)", "amplicon": "DRSC17887", "firefly reporter light, replicate 1": 12409, "Renilla control light, replicate 1": 9205, "Call": "inactive"}
{"gene knocked down": "SK (small conductance calcium-activated potassium channel)", "amplicon": "DRSC17888", "firefly reporter light, replicate 1": 21020, "Renilla control light, replicate 1": 12502, "Call": "inactive"}
{"gene knocked down": "SK (small conductance calcium-activated potassium channel)", "amplicon": "DRSC18353", "firefly reporter light, replicate 1": 3155, "firefly reporter light, replicate 2": 5064, "Renilla control light, replicate 1": 896, "Renilla control light, replicate 2": 1640, "Call": "inactive"}
{"gene knocked down": "SK (small conductance calcium-activated potassium channel)", "amplicon": "DRSC21840", "firefly reporter light, replicate 1": 7.49e5, "firefly reporter light, replicate 2": 7.65e5, "Renilla control light, replicate 1": 1.22e5, "Renilla control light, replicate 2": 1.37e5, "Call": "inactive"}

Copied from the entries so far, 4 entries:
{"gene knocked down": "CG15728", "amplicon": "DRSC19694", "firefly reporter light, replicate 1": 29825, "Renilla control light, replicate 1": 15461, "Call": "inactive"}
{"gene knocked down": "CG15728", "amplicon": "DRSC22868", "firefly reporter light, replicate 1": 5.00e5, "firefly reporter light, replicate 2": 7.26e5, "Renilla control light, replicate 1": 2.13e5, "Renilla control light, replicate 2": 3.21e5, "Call": "inactive"}
{"gene knocked down": "CG14722", "amplicon": "DRSC14944", "firefly reporter light, replicate 1": 4950, "Renilla control light, replicate 1": 2262, "Call": "inactive"}
{"gene knocked down": "Nepl3 (Neprilysin-like 3)", "amplicon": "DRSC02681", "firefly reporter light, replicate 1": 9424, "Renilla control light, replicate 1": 3450, "Call": "inactive"}

Additional results follow.
{"gene knocked down": "Cht2 (Chitinase 2)", "amplicon": "DRSC08650", "firefly reporter light, replicate 1": 19752, "Renilla control light, replicate 1": 4583, "Call": "inactive"}
{"gene knocked down": "spaw (spacewatch)", "amplicon": "DRSC06824", "firefly reporter light, replicate 1": 2215, "firefly reporter light, replicate 2": 6160, "Renilla control light, replicate 1": 433, "Renilla control light, replicate 2": 1765, "Call": "inactive"}
{"gene knocked down": "CG9483", "amplicon": "DRSC03226", "firefly reporter light, replicate 1": 13815, "Renilla control light, replicate 1": 3700, "Call": "inactive"}
{"gene knocked down": "CG10616", "amplicon": "DRSC09750", "firefly reporter light, replicate 1": 5249, "Renilla control light, replicate 1": 2032, "Call": "inactive"}
{"gene knocked down": "CG3408", "amplicon": "DRSC10360", "firefly reporter light, replicate 1": 5072, "Renilla control light, replicate 1": 2608, "Call": "inactive"}
{"gene knocked down": "Lsd-1 (Lipid storage droplet-1)", "amplicon": "DRSC14236", "firefly reporter light, replicate 1": 3010, "firefly reporter light, replicate 2": 10906, "Renilla control light, replicate 1": 1872, "Renilla control light, replicate 2": 2346, "Call": "inactive"}
{"gene knocked down": "Tdrd3 (Tudor domain containing 3)", "amplicon": "DRSC10016", "firefly reporter light, replicate 1": 5642, "Renilla control light, replicate 1": 2745, "Call": "inactive"}
{"gene knocked down": "CG2260", "amplicon": "DRSC18223", "firefly reporter light, replicate 1": 2089, "firefly reporter light, replicate 2": 4263, "Renilla control light, replicate 1": 1072, "Renilla control light, replicate 2": 1208, "Call": "inactive"}
{"gene knocked down": "CG14052", "amplicon": "DRSC17907", "firefly reporter light, replicate 1": 34596, "Renilla control light, replicate 1": 18231, "Call": "inactive"}
{"gene knocked down": "CG14052", "amplicon": "DRSC18192", "firefly reporter light, replicate 1": 41664, "Renilla control light, replicate 1": 16274, "Call": "inactive"}
